Reference: PubChem BioAssay AID602196 (INSERM, 2012)
Aim: 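Knock-downs that protect lung cancer cells from cisplatin or sensitise them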. System: human A549 lung cancer cells. Reagents: siRNA pair against human genes. Timing: 48 h transfection before cisplatin; time from cisplatin to read-out not stated. Conditions: cisplatin at a dose killing half of control-siRNA cells; exact dose and duration not given. Measurement: 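Shift in cisplatin death relative to control siRNA, from -50 (all cells die) to +50 (no cells die); siRNAs harmful on their own scored 0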. Direction: two-siRNA summed score (-2 to +2): higher = both siRNAs protect from cisplatin killing; -2 means both sensitise; mean protection from cisplatin (shift in death): higher = protection from cisplatin killing. Hit rule: 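siRNAs harmful alone (LDH or WST-1) get 0; others get +1 for less and -1 for more cisplatin killing; genes are active when the two siRNAs give the same sign, summing to ±2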. Meaning of the calls: active = both siRNAs shift cisplatin killing the same way; inactive = no consistent shift, or siRNA harmful alone.
The deposit covers about 23,000 reagents; this is a part drawn at random. Of all reagents, 455 (2%) are marked active. 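Active includes both protection and sensitisation; some change values fall well beyond the stated -50 to +50 range.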 A number with no mark means an inactive call. The numbers tell different reagents against one gene apart. Not all columns of the deposit are shown. The record does not give: the amount of reagent.

OR5B2 (olfactory receptor family 5 subfamily B member 2)
- two-siRNA summed score (-2 to +2): 1
- mean protection from cisplatin (shift in death) (%): 14.8

ZKSCAN1 (zinc finger with KRAB and SCAN domains 1)
- two-siRNA summed score (-2 to +2): 1
- mean protection from cisplatin (shift in death) (%): 14.4

CYP7A1 (cytochrome P450 family 7 subfamily A member 1)
- two-siRNA summed score (-2 to +2): 1
- mean protection from cisplatin (shift in death) (%): 14.5

MYL6P5 (MYL6 pseudogene 5)
- two-siRNA summed score (-2 to +2): 0
- mean protection from cisplatin (shift in death) (%): 5.6

HSPA13 (heat shock protein family A (Hsp70) member 13)
- two-siRNA summed score (-2 to +2): 0
- mean protection from cisplatin (shift in death) (%): 2.9

RANBP2 (RAN binding protein 2)
- two-siRNA summed score (-2 to +2): -1
- mean protection from cisplatin (shift in death) (%): -7.6

LOC130500
- two-siRNA summed score (-2 to +2): 1
- mean protection from cisplatin (shift in death) (%): 17

PDGFB (platelet derived growth factor subunit B)
- two-siRNA summed score (-2 to +2): 0
- mean protection from cisplatin (shift in death) (%): 52.7

LOC440579
- two-siRNA summed score (-2 to +2): 1
- mean protection from cisplatin (shift in death) (%): 4.2

LOC442126
- two-siRNA summed score (-2 to +2): 2 (active)
- mean protection from cisplatin (shift in death) (%): 24.8

GOPC (golgi associated PDZ and coiled-coil motif containing) #1
- two-siRNA summed score (-2 to +2): 0
- mean protection from cisplatin (shift in death) (%): 4.2

GOPC (golgi associated PDZ and coiled-coil motif containing) #2
- two-siRNA summed score (-2 to +2): 0
- mean protection from cisplatin (shift in death) (%): 9.6

SLC7A5
- two-siRNA summed score (-2 to +2): 1
- mean protection from cisplatin (shift in death) (%): 16.5

NAIP (NLR family apoptosis inhibitory protein)
- two-siRNA summed score (-2 to +2): 0
- mean protection from cisplatin (shift in death) (%): 10.1

KDM5B (lysine demethylase 5B)
- two-siRNA summed score (-2 to +2): -1
- mean protection from cisplatin (shift in death) (%): -13.5

ERBB4 (erb-b2 receptor tyrosine kinase 4)
- two-siRNA summed score (-2 to +2): 1
- mean protection from cisplatin (shift in death) (%): -0.5

PRRX2 (paired related homeobox 2)
- two-siRNA summed score (-2 to +2): 0
- mean protection from cisplatin (shift in death) (%): 3.7

ZDHHC24 (zDHHC palmitoyltransferase 24)
- two-siRNA summed score (-2 to +2): 0
- mean protection from cisplatin (shift in death) (%): 13.3

FBXO41 (F-box protein 41)
- two-siRNA summed score (-2 to +2): 0
- mean protection from cisplatin (shift in death) (%): 12.3

ANO2 (anoctamin 2)
- two-siRNA summed score (-2 to +2): 0
- mean protection from cisplatin (shift in death) (%): 0.1

OR4E2 (olfactory receptor family 4 subfamily E member 2)
- two-siRNA summed score (-2 to +2): 0
- mean protection from cisplatin (shift in death) (%): 2.8

ZNF271P (zinc finger protein 271, pseudogene)
- two-siRNA summed score (-2 to +2): 1
- mean protection from cisplatin (shift in death) (%): 13.3

LOC401957 (matrin 3 pseudogene)
- two-siRNA summed score (-2 to +2): 0
- mean protection from cisplatin (shift in death) (%): 10.6

LIMD2 (LIM domain containing 2)
- two-siRNA summed score (-2 to +2): 0
- mean protection from cisplatin (shift in death) (%): 4

PRMT3 (protein arginine methyltransferase 3)
- two-siRNA summed score (-2 to +2): 0
- mean protection from cisplatin (shift in death) (%): 7

ABHD17A (abhydrolase domain containing 17A, depalmitoylase)
- two-siRNA summed score (-2 to +2): 0
- mean protection from cisplatin (shift in death) (%): 0.7

TMEM54 (transmembrane protein 54)
- two-siRNA summed score (-2 to +2): 0
- mean protection from cisplatin (shift in death) (%): -4.5

MIR1-1HG (MIR1-1 host gene)
- two-siRNA summed score (-2 to +2): 0
- mean protection from cisplatin (shift in death) (%): 13.3

STXBP6 (syntaxin binding protein 6)
- two-siRNA summed score (-2 to +2): 0
- mean protection from cisplatin (shift in death) (%): -1.9

NXPE2 (neurexophilin and PC-esterase domain family member 2)
- two-siRNA summed score (-2 to +2): 0
- mean protection from cisplatin (shift in death) (%): 6.8

TFF2 (trefoil factor 2)
- two-siRNA summed score (-2 to +2): 0
- mean protection from cisplatin (shift in death) (%): -6.5

Records listed so far marked active:
LOC442126
- two-siRNA summed score (-2 to +2): 2 (active)
- mean protection from cisplatin (shift in death) (%): 24.8
